Measurements from PMC9974832.
No constants are given. Whether binding was seen depends on the method and setting. In cells and extracts the contact can be indirect. Some entries that bind do so weakly or less than the wild type.

Amino acid sequences for entries named in this document (tags omitted).
UniProt Q8R550: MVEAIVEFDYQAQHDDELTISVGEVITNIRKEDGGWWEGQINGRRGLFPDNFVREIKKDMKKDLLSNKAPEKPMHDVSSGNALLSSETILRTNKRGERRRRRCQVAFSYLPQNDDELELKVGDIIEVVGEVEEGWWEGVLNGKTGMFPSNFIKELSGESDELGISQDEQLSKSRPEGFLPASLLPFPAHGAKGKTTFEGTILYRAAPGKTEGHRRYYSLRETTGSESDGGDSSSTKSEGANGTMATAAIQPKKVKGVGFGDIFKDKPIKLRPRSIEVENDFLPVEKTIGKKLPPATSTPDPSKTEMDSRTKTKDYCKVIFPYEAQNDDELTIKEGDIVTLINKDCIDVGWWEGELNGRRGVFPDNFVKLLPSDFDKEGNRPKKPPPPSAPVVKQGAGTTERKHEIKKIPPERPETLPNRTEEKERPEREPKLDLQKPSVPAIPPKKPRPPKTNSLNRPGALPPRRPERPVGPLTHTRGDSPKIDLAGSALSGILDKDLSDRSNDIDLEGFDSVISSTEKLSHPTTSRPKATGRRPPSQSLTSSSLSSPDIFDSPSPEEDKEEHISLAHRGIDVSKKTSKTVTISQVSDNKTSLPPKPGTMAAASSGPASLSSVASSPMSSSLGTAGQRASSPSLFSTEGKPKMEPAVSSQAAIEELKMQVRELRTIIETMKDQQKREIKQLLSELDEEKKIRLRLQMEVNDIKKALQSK
UniProt Q96B97: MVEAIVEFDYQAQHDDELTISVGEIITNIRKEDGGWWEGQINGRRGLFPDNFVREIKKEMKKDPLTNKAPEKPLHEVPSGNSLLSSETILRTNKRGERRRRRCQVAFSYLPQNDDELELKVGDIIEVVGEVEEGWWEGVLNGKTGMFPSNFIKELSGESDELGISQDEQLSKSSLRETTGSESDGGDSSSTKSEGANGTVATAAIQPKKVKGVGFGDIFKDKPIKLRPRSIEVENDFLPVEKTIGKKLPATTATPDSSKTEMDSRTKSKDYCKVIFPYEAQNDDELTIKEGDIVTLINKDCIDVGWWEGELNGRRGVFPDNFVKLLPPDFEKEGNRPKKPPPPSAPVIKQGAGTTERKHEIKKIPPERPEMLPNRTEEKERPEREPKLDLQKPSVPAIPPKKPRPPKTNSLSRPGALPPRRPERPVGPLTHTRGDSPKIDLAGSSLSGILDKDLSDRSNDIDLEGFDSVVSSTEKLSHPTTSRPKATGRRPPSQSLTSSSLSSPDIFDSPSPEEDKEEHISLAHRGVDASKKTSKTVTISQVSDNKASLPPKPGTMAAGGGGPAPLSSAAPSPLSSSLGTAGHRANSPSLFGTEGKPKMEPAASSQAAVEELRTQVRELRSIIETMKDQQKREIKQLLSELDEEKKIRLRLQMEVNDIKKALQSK

Key:
[1] = target: T1, ARAP1 (mouse) (mouse (endogenous in isolated glomeruli)) (UniProt Q4LDD4); test: co-IP; lysates of isolated mouse glomeruli; Dynabeads Protein G Immunoprecipitation kit; immunoprecipitation with rabbit anti-ARAP1 or control rabbit IgG, blot with rabbit anti-CIN85
T1 sequence: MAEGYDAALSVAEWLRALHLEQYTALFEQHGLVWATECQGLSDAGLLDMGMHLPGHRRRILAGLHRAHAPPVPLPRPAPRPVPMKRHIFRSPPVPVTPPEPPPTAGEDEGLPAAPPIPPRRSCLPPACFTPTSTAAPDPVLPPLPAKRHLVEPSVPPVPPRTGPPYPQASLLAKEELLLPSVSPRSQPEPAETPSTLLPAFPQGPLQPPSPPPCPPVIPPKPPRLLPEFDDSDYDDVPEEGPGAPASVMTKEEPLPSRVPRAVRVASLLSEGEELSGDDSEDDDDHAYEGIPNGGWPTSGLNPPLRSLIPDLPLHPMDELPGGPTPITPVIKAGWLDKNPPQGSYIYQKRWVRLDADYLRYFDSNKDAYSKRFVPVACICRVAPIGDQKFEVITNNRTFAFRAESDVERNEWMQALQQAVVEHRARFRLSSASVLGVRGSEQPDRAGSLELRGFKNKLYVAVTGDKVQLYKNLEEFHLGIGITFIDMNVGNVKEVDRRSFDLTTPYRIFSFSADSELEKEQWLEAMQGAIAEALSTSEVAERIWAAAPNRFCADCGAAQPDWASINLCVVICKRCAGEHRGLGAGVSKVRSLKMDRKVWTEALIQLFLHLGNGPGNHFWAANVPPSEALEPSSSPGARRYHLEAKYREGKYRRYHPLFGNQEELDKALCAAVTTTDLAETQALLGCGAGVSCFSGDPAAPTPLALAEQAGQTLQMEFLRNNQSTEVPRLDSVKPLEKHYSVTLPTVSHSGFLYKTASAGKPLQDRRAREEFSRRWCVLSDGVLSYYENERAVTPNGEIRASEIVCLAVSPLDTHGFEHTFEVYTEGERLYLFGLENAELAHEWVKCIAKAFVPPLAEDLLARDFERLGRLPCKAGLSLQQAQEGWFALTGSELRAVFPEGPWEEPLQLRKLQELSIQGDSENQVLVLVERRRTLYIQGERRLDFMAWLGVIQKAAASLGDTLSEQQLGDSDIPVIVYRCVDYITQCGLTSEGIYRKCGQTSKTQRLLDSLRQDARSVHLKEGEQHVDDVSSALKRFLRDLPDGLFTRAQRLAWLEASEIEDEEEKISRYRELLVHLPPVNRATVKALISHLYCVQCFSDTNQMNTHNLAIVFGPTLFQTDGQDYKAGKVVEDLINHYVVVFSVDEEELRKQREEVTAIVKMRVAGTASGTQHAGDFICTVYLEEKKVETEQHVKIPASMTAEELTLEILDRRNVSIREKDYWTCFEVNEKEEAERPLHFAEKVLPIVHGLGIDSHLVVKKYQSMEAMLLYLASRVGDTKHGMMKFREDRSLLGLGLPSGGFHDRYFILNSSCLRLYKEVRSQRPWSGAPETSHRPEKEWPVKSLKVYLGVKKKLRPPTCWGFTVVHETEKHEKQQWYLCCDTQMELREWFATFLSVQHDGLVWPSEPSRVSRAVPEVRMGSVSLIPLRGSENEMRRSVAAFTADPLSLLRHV

[2] = target: T2, ARAP1 (human (endogenous in HRMCs)) (UniProt Q96P48); test: co-IP; HRMC protein extracts (normal glucose and high glucose); immunoprecipitation with mouse anti-ARAP1 or control mouse IgG, blot with rabbit anti-CIN85
T2 sequence: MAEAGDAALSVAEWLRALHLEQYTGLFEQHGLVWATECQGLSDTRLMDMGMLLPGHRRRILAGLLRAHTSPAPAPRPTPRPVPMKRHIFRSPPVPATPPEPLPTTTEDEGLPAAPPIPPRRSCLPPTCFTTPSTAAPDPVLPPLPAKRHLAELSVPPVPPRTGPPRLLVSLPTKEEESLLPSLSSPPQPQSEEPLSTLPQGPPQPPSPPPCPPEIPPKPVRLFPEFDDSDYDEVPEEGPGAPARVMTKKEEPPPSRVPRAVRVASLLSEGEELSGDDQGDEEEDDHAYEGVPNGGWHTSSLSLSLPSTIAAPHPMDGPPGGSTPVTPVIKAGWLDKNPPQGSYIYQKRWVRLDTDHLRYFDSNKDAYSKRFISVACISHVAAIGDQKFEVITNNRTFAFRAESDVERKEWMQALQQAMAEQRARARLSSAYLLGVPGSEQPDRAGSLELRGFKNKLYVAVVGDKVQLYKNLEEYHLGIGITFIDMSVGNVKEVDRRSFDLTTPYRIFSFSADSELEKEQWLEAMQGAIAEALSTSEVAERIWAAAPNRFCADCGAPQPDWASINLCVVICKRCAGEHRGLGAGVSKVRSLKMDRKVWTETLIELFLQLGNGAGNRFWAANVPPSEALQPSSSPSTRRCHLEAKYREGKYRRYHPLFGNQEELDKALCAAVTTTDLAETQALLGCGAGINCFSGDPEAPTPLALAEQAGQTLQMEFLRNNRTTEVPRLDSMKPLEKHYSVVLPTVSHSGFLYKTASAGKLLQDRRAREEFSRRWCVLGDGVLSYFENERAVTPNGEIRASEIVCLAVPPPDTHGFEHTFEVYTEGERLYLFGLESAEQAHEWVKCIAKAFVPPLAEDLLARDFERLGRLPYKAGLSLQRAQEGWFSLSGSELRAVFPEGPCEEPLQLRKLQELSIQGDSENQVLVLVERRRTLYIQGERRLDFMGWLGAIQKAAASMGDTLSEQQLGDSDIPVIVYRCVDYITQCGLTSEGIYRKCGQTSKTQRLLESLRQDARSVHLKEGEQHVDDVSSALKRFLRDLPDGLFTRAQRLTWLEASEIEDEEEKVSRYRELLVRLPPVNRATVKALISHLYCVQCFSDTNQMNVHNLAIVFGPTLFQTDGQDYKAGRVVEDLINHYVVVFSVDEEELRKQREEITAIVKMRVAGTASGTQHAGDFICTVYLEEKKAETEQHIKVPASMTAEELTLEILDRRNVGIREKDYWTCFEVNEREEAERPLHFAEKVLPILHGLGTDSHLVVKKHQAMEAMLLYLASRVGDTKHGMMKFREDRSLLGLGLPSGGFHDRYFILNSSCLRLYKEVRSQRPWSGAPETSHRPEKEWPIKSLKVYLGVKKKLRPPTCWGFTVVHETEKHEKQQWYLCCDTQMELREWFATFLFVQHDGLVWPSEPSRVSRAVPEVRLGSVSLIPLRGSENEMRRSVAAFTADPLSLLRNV

| binding [1] | binding [2] | Substance |
| --- | --- | --- |
| binds | – | CIN85 (mouse) (from UniProt Q8R550 1-709) |
| – | binds | CIN85 (from UniProt Q96B97 1-665) |
